PubChem BioAssay AID1224828 – NIAID, 2016

Purpose: 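Find genes required for NF-kappaB p65 moving into the nucleus after LPS in mouse macrophages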 (primary screen)
Cells: mouse RAW264.7 G9 macrophage reporter cells (GFP-p65, Tnf promoter-mCherry)
Reagent: siRNA pool against mouse genes, 100 nM
Time to read-out: 2 days siRNA transfection, then 40 min LPS before fixation
Conditions: LPS (Salmonella minnesota R595) at 10 ng/ml
Read-out: 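Imaged p65 nuclear translocation ratio, normalised to the plate median, converted to robust z-scores and averaged across two replicates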
Direction: p65 translocation robust z-score: higher = more nuclear NF-kappaB p65 after LPS than the plate median; nuclear/cytoplasmic p65 ratio: higher = more nuclear NF-kappaB p65
Hit rule: 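Active if robust z is above 3.3 (negative regulators) or below -1.56, the Tlr4 control median (positive regulators); activity score 50 or more; control wells not called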
Calls: active = hit (p65 shift raised or lowered); inactive = no clear change
Shown is one part, drawn at random, of about 17,000 reagents tested. Of all reagents, 762 (4.5%) are marked active. 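Active calls include both raised and lowered p65 entry, mostly lowered; wells with fewer than 50 cells lack a z-score.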 Raw values are not corrected between plates. The numbers tell different reagents against one gene apart. No sequences are given here.

With knock-down of Gzma (GeneID 14938), the screen gave p65 translocation robust z-score -0.53; nuclear/cytoplasmic p65 ratio, rep 1 = 1.29; nuclear/cytoplasmic p65 ratio, rep 2 = 1.38; low cell count flag enough cells to score; inactive. After knock-down of Rexo1 (GeneID 66932), the screen gave nuclear/cytoplasmic p65 ratio, rep 1 = 1.27; nuclear/cytoplasmic p65 ratio, rep 2 = 1.27; low cell count flag fewer than 50 cells per well; well left out of scoring; inactive. Itgb2 (GeneID 16414) scored p65 translocation robust z-score 0.11; nuclear/cytoplasmic p65 ratio, rep 1 = 1.53; nuclear/cytoplasmic p65 ratio, rep 2 = 1.36; low cell count flag enough cells to score; inactive. Against Slc16a9 (GeneID 66859), the entry reads p65 translocation robust z-score -0.3; nuclear/cytoplasmic p65 ratio, rep 1 = 1.37; nuclear/cytoplasmic p65 ratio, rep 2 = 1.21; low cell count flag enough cells to score; inactive. F7 (GeneID 14068) gave p65 translocation robust z-score 0.42; nuclear/cytoplasmic p65 ratio, rep 1 = 1.51; nuclear/cytoplasmic p65 ratio, rep 2 = 1.43; low cell count flag enough cells to score; inactive. Pnmt (GeneID 18948) gave p65 translocation robust z-score 0.39; nuclear/cytoplasmic p65 ratio, rep 1 = 1.64; nuclear/cytoplasmic p65 ratio, rep 2 = 1.38; low cell count flag enough cells to score; inactive.

With knock-down of Gnat2 (GeneID 14686), the record shows p65 translocation robust z-score 0.14; nuclear/cytoplasmic p65 ratio, rep 1 = 1.52; nuclear/cytoplasmic p65 ratio, rep 2 = 1.61; low cell count flag enough cells to score; inactive. For Oxct1 (GeneID 67041), the entry reads p65 translocation robust z-score -0.06; nuclear/cytoplasmic p65 ratio, rep 1 = 1.38; nuclear/cytoplasmic p65 ratio, rep 2 = 1.46; low cell count flag enough cells to score; inactive. For Pde4d (GeneID 238871) #1, the entry reads p65 translocation robust z-score 0.91; nuclear/cytoplasmic p65 ratio, rep 1 = 1.57; nuclear/cytoplasmic p65 ratio, rep 2 = 1.53; low cell count flag enough cells to score; inactive. With knock-down of Pde4d (GeneID 238871) #2 the results were nuclear/cytoplasmic p65 ratio, rep 1 = 1.34; nuclear/cytoplasmic p65 ratio, rep 2 = 1.33; low cell count flag fewer than 50 cells per well; well left out of scoring; inactive. For Defb21 (GeneID 403172), the values are nuclear/cytoplasmic p65 ratio, rep 1 = 1.51; nuclear/cytoplasmic p65 ratio, rep 2 = 1.32; low cell count flag fewer than 50 cells per well; well left out of scoring; inactive. For Nr5a1 (GeneID 26423), the values are p65 translocation robust z-score 0.44; nuclear/cytoplasmic p65 ratio, rep 1 = 1.52; nuclear/cytoplasmic p65 ratio, rep 2 = 1.46; low cell count flag enough cells to score; inactive.

Zfp934 (GeneID 77117) scored p65 translocation robust z-score 0.15; nuclear/cytoplasmic p65 ratio, rep 1 = 1.43; nuclear/cytoplasmic p65 ratio, rep 2 = 1.58; low cell count flag enough cells to score; inactive. AI463229 (GeneID 100042802) showed p65 translocation robust z-score 1.22; nuclear/cytoplasmic p65 ratio, rep 1 = 1.6; nuclear/cytoplasmic p65 ratio, rep 2 = 1.71; low cell count flag enough cells to score; inactive.
